Measured values reported in the supplement of paper PMC4604168 (melanoma cell lines).
The list shows a part of the results. Many values rest on one well or one pass, so single values are uncertain.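 Imaging used 1,536-well plates; nuclei positive for cleaved PARP by antibody were divided by total DNA-stained nuclei to yield the apoptosis fraction. Doses for screening kept most cells viable, and cell lines differ markedly in resting and induced cleaved-PARP levels.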

Legend:
Assay in all cases: cleaved PARP positive nuclei fraction relative to DMSO control; melanoma cells; higher = more apoptosis
Conditions in all cases: library dose: low library concentration; 72 h
[1] = system: MZ2-MEL
[2] = system: MeWo
[3] = system: RPMI7951
[4] = system: RVH-421
[5] = system: SkMel28
[6] = system: SkMel30
[7] = system: SkMel5
[8] = system: UACC257
[9] = system: UACC62

Structure (SMILES) | cleaved PARP positive nuclei fraction [1] [%] | cleaved PARP positive nuclei fraction [2] [%] | cleaved PARP positive nuclei fraction [3] [%] | cleaved PARP positive nuclei fraction [4] [%] | cleaved PARP positive nuclei fraction [5] [%] | cleaved PARP positive nuclei fraction [6] [%] | cleaved PARP positive nuclei fraction [7] [%] | cleaved PARP positive nuclei fraction [8] [%] | cleaved PARP positive nuclei fraction [9] [%]
Cc1cc(SCc2sc(-c3ccc(C(F)(F)F)c(F)c3)nc2C)ccc1OCC(=O)O + Oc1cc(-c2nc(-c3ccccc3)[nH]c2-c2ccncc2)ccc1Cl [L779450] (first compound 2 µM, partner dose 0.2 µM) | 239 | 51.6 | 71.8 | 33.9 | 115 | 419 | 30 | 240 | 328
CCc1ccc(CCOc2ccc(CC3SC(=O)NC3=O)cc2)nc1 (stereo unspecified) [pioglitazone] + Cc1cc(SCc2sc(-c3ccc(C(F)(F)F)c(F)c3)nc2C)ccc1OCC(=O)O [GW0742] (first compound 2 µM, partner dose 2 µM) | 29.5 | 111 | 176 | 83.7 | 361 | 21.1 | 43.4 | 169 | 31.6
C[C@]12O[C@H](C[C@]1(O)CO)n1c3ccccc3c3c4c(c5c6ccccc6n2c5c31)CNC4=O [Lestaurtinib] + Cn1c(=O)n(-c2ccc(C(C)(C)C#N)cc2)c2c3cc(-c4cnc5ccccc5c4)ccc3ncc21 [NVP-BEZ235] (first compound 0.004 µM, partner dose 0.004 µM) | 123 | 81.7 | 44.1 | 167 | 87.5 | 51.9 | – | – | 68.8
C[C@]12O[C@H](C[C@]1(O)CO)n1c3ccccc3c3c4c(c5c6ccccc6n2c5c31)CNC4=O [Lestaurtinib] + CN1CCN(c2ccc3nc(-c4c(N)c5c(F)cccc5[nH]c4=O)[nH]c3c2)CC1 [Dovitinib] (first compound 0.004 µM, partner dose 0.1 µM) | 73.8 | 266 | 79.8 | 219 | 76.7 | 32.7 | – | – | 165
CO[C@H]1C[C@@H]2CC[C@@H](C)[C@@](O)(O2)C(=O)C(=O)N2CCCC[C@H]2C(=O)O[C@H]([C@H](C)C[C@@H]2CC[C@@H](OCCO)[C@H](OC)C2)CC(=O)[C@H](C)/C=C(\C)[C@@H](O)[C@@H](OC)C(=O)[C@H](C)C[C@H](C)/C=C/C=C/C=C/1C [everolimus] + Cc1cc(SCc2sc(-c3ccc(C(F)(F)F)c(F)c3)nc2C)ccc1OCC(=O)O [GW0742] (first compound 0.02 µM, partner dose 2 µM) | 131 | 53.6 | 112 | 104 | 87.4 | 129 | 150 | 184 | 121
Cn1cnc2c(F)c(Nc3ccc(Br)cc3Cl)c(C(=O)NOCCO)cc21 [selumetinib] + C[C@]12O[C@H](C[C@]1(O)CO)n1c3ccccc3c3c4c(c5c6ccccc6n2c5c31)CNC4=O [Lestaurtinib] (first compound 0.015 µM, partner dose 0.004 µM) | 422 | 72.7 | 99.6 | 302 | 132 | 189 | – | – | 202
C[C@]12O[C@H](C[C@]1(O)CO)n1c3ccccc3c3c4c(c5c6ccccc6n2c5c31)CNC4=O [Lestaurtinib] + CC(C)C[C@H](NC(=O)[C@H](Cc1ccccc1)NC(=O)c1cnccn1)B(O)O [Bortezomib] (first compound 0.004 µM, partner dose 0.001 µM) | 86 | 73.1 | 159 | 65 | 37 | 19.7 | – | – | 86.8
C[C@]12O[C@H](C[C@]1(O)CO)n1c3ccccc3c3c4c(c5c6ccccc6n2c5c31)CNC4=O [Lestaurtinib] + Cc1cc(Nc2cc(N3CCN(C)CC3)nc(/C=C/c3ccccc3)n2)n[nH]1 [ENMD2076] (first compound 0.004 µM, partner dose 0.04 µM) | 53.1 | 199 | 77.6 | 124 | 184 | 112 | – | – | 118
C[C@]12O[C@H](C[C@]1(O)CO)n1c3ccccc3c3c4c(c5c6ccccc6n2c5c31)CNC4=O [Lestaurtinib] + O=C(O)[C@@H]1[O][Sb](=[O])([O][Sb]2(=[O])[O][C@H]([C@H](O)CO)[C@H](O)[C@H](C(=O)O)[O]2)[O][C@H]([C@H](O)CO)[C@@H]1O [stibogluconate] (first compound 0.004 µM, partner dose 2 µM) | 83.2 | 270 | 53.2 | 60 | 99.1 | 76.7 | – | – | 59.8
C[C@]12O[C@H](C[C@]1(O)CO)n1c3ccccc3c3c4c(c5c6ccccc6n2c5c31)CNC4=O [Lestaurtinib] + NC1(c2ccc(-c3nc4ccn5c(=O)[nH]nc5c4cc3-c3ccccc3)cc2)CCC1 [MK2206] (first compound 0.004 µM, partner dose 0.4 µM) | 162 | 423 | 40.6 | 357 | 54.3 | 147 | – | – | 88.4
C[C@]12O[C@H](C[C@]1(O)CO)n1c3ccccc3c3c4c(c5c6ccccc6n2c5c31)CNC4=O [Lestaurtinib] + Oc1cc(-c2nc(-c3ccccc3)[nH]c2-c2ccncc2)ccc1Cl [L779450] (first compound 0.004 µM, partner dose 0.2 µM) | 60.3 | 22.7 | 28.3 | 98.9 | 186 | 55.2 | 64.3 | 230 | 305
C[C@]12O[C@H](C[C@]1(O)CO)n1c3ccccc3c3c4c(c5c6ccccc6n2c5c31)CNC4=O [Lestaurtinib] + Nc1nc(F)nc2c1ncn2[C@@H]1O[C@H](CO)[C@@H](O)[C@@H]1O [fludarabine] (first compound 0.004 µM, partner dose 0.2 µM) | 85.8 | 534 | 80.8 | 139 | 237 | 851 | – | – | 330
O=C(Nc1cccc(Cl)c1)Nc1ncc(CCNc2ncnc3ccsc23)s1 + O=C(Oc1ccc([N+](=O)[O-])cc1)N1CCC(C(O)(c2ccc3c(c2)OCO3)c2ccc3c(c2)OCO3)CC1 [JZL184] (first compound 0.0008 µM, partner dose 1 µM) | 89.2 | 149 | 164 | 28.7 | 111 | 13.4 | 64.2 | 68.6 | 409
CC(C)(C)c1cnc(CSc2cnc(NC(=O)C3CCNCC3)s2)o1 + O=C(Oc1ccc([N+](=O)[O-])cc1)N1CCC(C(O)(c2ccc3c(c2)OCO3)c2ccc3c(c2)OCO3)CC1 [JZL184] (first compound 0.01 µM, partner dose 1 µM) | 249 | 66.6 | 42.4 | 99.5 | 101 | 61.8 | 42.6 | 235 | 129
C[C@]12O[C@H](C[C@]1(O)CO)n1c3ccccc3c3c4c(c5c6ccccc6n2c5c31)CNC4=O [Lestaurtinib] + CC(C)CCN1c2nc(Nc3cc(F)c(O)c(F)c3)ncc2N(C)C(=O)C1C [BID1870] (first compound 0.004 µM, partner dose 0.2 µM) | 139 | 46.7 | 129 | 86.7 | 71.6 | 49.7 | 78 | 280 | 172
Cc1cc(SCc2sc(-c3ccc(C(F)(F)F)c(F)c3)nc2C)ccc1OCC(=O)O + Oc1nc(-c2ccc(C(F)(F)F)cc2)nc2c1CSCC2 [XAV939] (first compound 2 µM, partner dose 2 µM) | 147 | 57.5 | 41.2 | 50 | 216 | 123 | 207 | 186 | 106
C[C@]12O[C@H](C[C@]1(O)CO)n1c3ccccc3c3c4c(c5c6ccccc6n2c5c31)CNC4=O [Lestaurtinib] + CCN(CC)CCNC(=O)c1c(C)[nH]c(/C=C2\C(=O)Nc3ccc(F)cc32)c1C [sunitinib] (first compound 0.004 µM, partner dose 0.4 µM) | 107 | 32.5 | 195 | 44.2 | 83.9 | 76.6 | – | – | 140
C[C@]12O[C@H](C[C@]1(O)CO)n1c3ccccc3c3c4c(c5c6ccccc6n2c5c31)CNC4=O [Lestaurtinib] + CCCCCCCCc1ccc(CCC(N)(CO)CO)cc1 [fingolimod] (first compound 0.004 µM, partner dose 2 µM) | 89.8 | 41.7 | 64.4 | 80.9 | 92.8 | 83 | – | – | 69.2
N.N.[Cl][Pt][Cl] [cisplatin] + CO[C@H]1C[C@@H]2CC[C@@H](C)[C@@](O)(O2)C(=O)C(=O)N2CCCC[C@H]2C(=O)O[C@H]([C@H](C)C[C@@H]2CC[C@@H](OCCO)[C@H](OC)C2)CC(=O)[C@H](C)/C=C(\C)[C@@H](O)[C@@H](OC)C(=O)[C@H](C)C[C@H](C)/C=C/C=C/C=C/1C [everolimus] (first compound 1.6 µM, partner dose 0.02 µM) | 199 | 112 | 37.9 | 126 | 114 | 68.5 | – | – | 431
C[C@]12O[C@H](C[C@]1(O)CO)n1c3ccccc3c3c4c(c5c6ccccc6n2c5c31)CNC4=O [Lestaurtinib] + C[C@]1(O)C[C@@H](c2nc(-c3ccc4ccc(-c5ccccc5)nc4c3)c3c(N)nccn32)C1 [OSI906] (first compound 0.004 µM, partner dose 0.4 µM) | 128 | 48.7 | 96.6 | 106 | 45.5 | 81.4 | – | – | 129

Complete entries, quoted from the list. Values in the order: cleaved PARP positive nuclei fraction [1] [%]	cleaved PARP positive nuclei fraction [2] [%]	cleaved PARP positive nuclei fraction [3] [%]	cleaved PARP positive nuclei fraction [4] [%]	cleaved PARP positive nuclei fraction [5] [%]	cleaved PARP positive nuclei fraction [6] [%]	cleaved PARP positive nuclei fraction [7] [%]	cleaved PARP positive nuclei fraction [8] [%]	cleaved PARP positive nuclei fraction [9] [%]
C[C@]12O[C@H](C[C@]1(O)CO)n1c3ccccc3c3c4c(c5c6ccccc6n2c5c31)CNC4=O [Lestaurtinib] + NC1(c2ccc(-c3nc4ccn5c(=O)[nH]nc5c4cc3-c3ccccc3)cc2)CCC1 [MK2206] (first compound 0.004 µM, partner dose 0.4 µM) is listed with 162	423	40.6	357	54.3	147	–	–	88.4
Cn1cnc2c(F)c(Nc3ccc(Br)cc3Cl)c(C(=O)NOCCO)cc21 [selumetinib] + C[C@]12O[C@H](C[C@]1(O)CO)n1c3ccccc3c3c4c(c5c6ccccc6n2c5c31)CNC4=O [Lestaurtinib] (first compound 0.015 µM, partner dose 0.004 µM) is listed with 422	72.7	99.6	302	132	189	–	–	202
